Results as given in US20060210973A1.
These are yes or no findings as the source states them, for the method shown.

Molecular target: Vav bait (aa. 172-598)
Assay: yeast two-hybrid, growth on selective medium

- binding: no binding
B1: TRIAPα (Trio inhibitory aptamer), yeast two-hybrid prey (designed binder, not shown: large carriers)
chain: MSDKIIHLTDDSFDTDVLKADGAILVDFWAEWCGPAREGADGAICGYNLATLVMLGPSERVFCPLCEPCSSDIYELMGPCKMIAPILDEIADEYQGKLTVAKLNIDQNPGTAPKYGIRGIPTLLLFKNGEVASATKVGALSKGQLKEFLDANLA
